# Measured values published in the supplement of paper PMC4371806.
# Over roughly 1,600 compounds, “plate-normalized OD600 growth (mean of duplicates)” has its median near 0.31; the lowest 2% begin near 0.23. This is one part of the list.
# Tested on: Escherichia coli BW25113
# Assay: plate-normalized OD600 growth (mean of duplicates) (OD600 (normalized)); higher = more growth (less inhibition)
# Conditions: 10 µM
# Experimental: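 E. coli BW25113 in LB (100 µl, 96-well, no shaking) was exposed to 10 µM of each compound (here the ChemBridge subset of a ~30,000-member library) and grown at 37°C for 24 h or 15°C for 48 h, in duplicate. Growth was read as OD600 and the duplicate ODs were normalized across screening plates to correct plate-to-plate variation.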
SMILES,"plate-normalized OD600 growth (temperature: 15°C, 48 h)","plate-normalized OD600 growth (temperature: 37°C, 24 h)"
Brc1ccccc1CN1CCN(c2ccccn2)CC1,0.244,0.606
CC(=O)Nc1ccc2nc(-c3ccc(Cl)cc3Cl)[nH]c2c1,0.242,0.628
Oc1ccc(O)c(C2CC3CCC2C3)c1 (configuration not stated),0.245,0.638
CN1CCCN(C2CCCCCCC2)CC1,0.256,0.603
COc1ccc(S(=O)(=O)N2CCCC(C)C2)cc1 (configuration not stated),0.266,0.639
COc1ccc(NC(=O)c2cccc(S(=O)(=O)Nc3cccc([N+](=O)[O-])c3)c2)cc1,0.249,0.61
O=C(Cc1ccc([N+](=O)[O-])cc1)NCCO,0.256,0.644
Cc1ccc(-c2ncccc2O)cc1[N+](=O)[O-],0.245,0.615
CCCC(O)=C1C(=O)CC(C)(C)CC1=Nc1nc2ccccc2[nH]1,0.272,0.654
O=c1[nH]nc(SCc2ccccc2)c(=O)[nH]1,0.252,0.614
Cc1ccc2nc(/C(C#N)=C\c3ccco3)[nH]c2c1,0.242,0.599
Cc1cc(C)cc(NCc2cc3c(cc2[N+](=O)[O-])OCO3)c1,0.273,0.669
O=C(CC1Nc2ccccc2NC1=O)Nc1ccccc1 (configuration not stated),0.24,0.597
O=Cc1ccccc1OCc1ccccc1F,0.256,0.61
Cc1sc2nc(SCC(=O)NC3CCCCC3)n(C)c(=O)c2c1C,0.271,0.647
COCc1cc(C)nc(NN)c1C#N,0.258,0.622
Fc1ccc(CN2CCN(c3ccccn3)CC2)c(F)c1,0.244,0.601
CCC1CCCCN1C(=O)c1cccs1 (configuration not stated),0.225,0.613
Cc1cc(C)n(S(=O)(=O)c2ccccc2)c(=O)n1,0.252,0.619

SMILES,"plate-normalized OD600 growth (temperature: 15°C, 48 h)","plate-normalized OD600 growth (temperature: 37°C, 24 h)"
O=C(Nc1nc(-c2ccccc2)cs1)c1ccccc1,0.255,0.602
c1ccc(-c2ccn(-c3ccccc3)n2)cc1,0.245,0.604
COc1ccc(NC(=O)C2CCC(C)(C(=O)O)C2(C)C)cc1 (configuration not stated),0.232,0.614
C=CCn1c(=O)n(CCC#N)c(=O)n(CCC#N)c1=O,0.253,0.624
O=C1CCCc2c1nc(-c1cccc([N+](=O)[O-])c1)n2O,0.224,0.596
NS(=O)(=O)c1ccc2c(c1)C1C=CCC1C(C1CC=CCC1)N2 (configuration not stated),0.25,0.611
Cc1c(C(=O)N2CCC(C(N)=O)CC2)sc(N)c1C#N,0.264,0.633
COc1ccc(-n2c(NN)nc3sc4c(c3c2=O)CCCC4)cc1,0.261,0.636
Cc1nonc1NC(=O)Nc1ccncc1,0.18,0.615
Cc1ccc(-c2csc(C(C#N)=Cc3ccc(Br)o3)n2)c(C)c1,0.26,0.624
Cc1cc(OCC(=O)N(C)C2CCCCC2)ccc1Cl,0.246,0.647
C1CCCC(NCCN2CCCCC2)CC1,0.264,0.656
O=C(O)C1CCCN1S(=O)(=O)c1ccc([N+](=O)[O-])cc1 (configuration not stated),0.256,0.626
N#Cc1c(NC(=O)c2ccco2)sc2c1CCCCC2,0.265,0.653
Cn1cnc([N+](=O)[O-])c1Sc1cn2c(n1)CCC2,0.237,0.615
N#CC(=Cc1cccs1)c1nc(-c2ccc3c(c2)OCO3)cs1,0.241,0.61
O=C(O)CCCC(=O)Nc1ccc(Cl)c(Cl)c1,0.247,0.602
CC1CCC2(CC1)C(C#N)C(=O)NC(=O)C2C#N (configuration not stated),0.244,0.615
COc1cc(CNc2ccccc2F)cc(OC)c1,0.257,0.626

# Single records (already shown). Values in the order: plate-normalized OD600 growth (temperature: 15°C, 48 h) | plate-normalized OD600 growth (temperature: 37°C, 24 h)
# O=C(Nc1nc(-c2ccccc2)cs1)c1ccccc1 in the list: 0.255 | 0.602
# CC1CCC2(CC1)C(C#N)C(=O)NC(=O)C2C#N (configuration not stated) in the list: 0.244 | 0.615

# (cont.)

SMILES,"plate-normalized OD600 growth (temperature: 15°C, 48 h)","plate-normalized OD600 growth (temperature: 37°C, 24 h)"
CC1CCC(N2CCCN(C)CC2)CC1 (configuration not stated),0.282,0.645
COc1nc(N)c(C#N)c(-c2ccc(N(C)C)cc2)c1C#N,0.248,0.633
CC1=C(C)CC2C(=O)N(Cc3ccccc3)C(=O)C2C1 (configuration not stated),0.24,0.654
CCCCOc1ccc(CN2CCN(CCOCCO)CC2)cc1,0.216,0.626
C#CCn1c(-c2nonc2N)nc2ccccc21,0.251,0.605
Cc1ccc(S(=O)(=O)Nc2nnc(C)s2)cc1,0.265,0.624
CCCc1nc(N)c(C#N)c(-c2ccco2)c1CC,0.249,0.606
O=S(=O)(Cc1ccccc1)N1CCN(c2ccccc2)CC1,0.257,0.626
CC(Nc1cc(=O)n(C)c(=O)[nH]1)c1ccccc1 (configuration not stated),0.254,0.611
COc1ccc(NC(=O)COc2ccc([N+](=O)[O-])cc2)cc1,0.255,0.636
Clc1ccc(-c2csc(Nc3ccc4c(c3)OCO4)n2)cc1,0.24,0.61
O=C1CC(Cc2ccc(Cl)cc2)C(=O)N1C1CCCCC1 (configuration not stated),0.267,0.651
CC(C)NC(=O)c1ccc(C(C)(C)C)cc1,0.253,0.614
Cc1ccc2c(c1)c1c(n2CCN2C(=O)c3ccccc3C2=O)C(=O)CCC1,0.239,0.596
CCOc1ccc(Nc2nc(-c3ccc(CC(C)C)cc3)cs2)cc1,0.223,0.624
O=c1[nH]c(/C=C/c2ccc(Br)cc2)nc(O)c1[N+](=O)[O-],0.261,0.626
Nc1ccc(Br)cc1-c1nc2ccccc2[nH]c1=O,0.254,0.608
CC(=O)C(=C(C)O)c1nc2ccccc2[nH]1,0.253,0.599
